tested on: experimental amnesia caused in rats by scopolamine; assay: Preventive effect against experimental amnesia caused in rats by scopolamine (passive avoidance learning, intraperitoneal administration); assay type: in vivo, Wister male rats; conditions: 1 mg/kg i.p. one hour before learning
Protocol: Several of the anti-prolyl endopeptidase compounds of the present invention were checked for their ability to prevent the inhibition of long-term memory fixation by scopolamine. Solutions of physiological saline that contained selected compounds of the present inventions in an amount of 1 mg/kg were administered intraperitoneally to Wister male rats (100-120 g). One hour after the administration, electric shocks were applied to the rats so that they would acquire passive avoidance learning. Immediately thereafter, scopolamine was administered intraperitoneally to each rat in an amount of 3 mg per kg of body weight.
The result of the test was assessed both 24 hours and 48 hours after the administration of scopolamine. The number of amnesic rats and of sound rats was counted for both the control group (rats which were not given the test compounds but to which scopolamine and physiological saline alone were administered intraperitoneally) and the treated group (rats to which both the test compound and scopolamine were administered).

Row | SMILES | Learning: Initial avoidance time | Learning: No. of avoidances during learning | Learning: Total learning time
1 | COc1ccc(CCC(=O)N2CCCC2C=O)cc1 (stereo not drawn) [SUAM1050] | 2.6 s | 2.5 | 110.0 s
2 | COc1ccc(CCCC(=O)N2CCCC2C=O)cc1 (stereo not drawn) [SUAM1051] | 3.1 s | 2.0 | 110.0 s
3 | O=CC1CCCN1C(=O)Cc1ccc(Cl)cc1 (stereo not drawn) [SUAM1052] | 3.2 s | 2.7 | 110.0 s
4 | COc1ccc(/C=C/C(=O)N2CCCC2C=O)cc1 (stereo not drawn) [SUAM1054] | 2.0 s | 1.9 | 110.0 s
5 | O=CC1CCCN1C(=O)CCC(=O)c1ccccc1 (stereo not drawn) [SUAM1055] | 3.5 s | 1.7 | 110.0 s
6 | O=CC1CCCN1C(=O)CC(c1ccccc1)c1ccccc1 (stereo not drawn) [SUAM1065] | 2.9 s | 2.0 | 110.0 s
7 | CCC(C(=O)N1CCCC1C=O)c1ccccc1 (stereo not drawn) [SUAM1066] | 3.7 s | 1.5 | 110.0 s
8 | O=CC1CCCN1C(=O)CCC(c1ccccc1)c1ccccc1 (stereo not drawn) [SUAM1090] | 3.4 s | 2.2 | 110.0 s
